Data as given in PubChem BioAssay AID1259425 (University of Nebraska Medical Center, 2018).
Test: 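Seek colon cancer weak points whose silencing resembles KSR1 loss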 (primary screen). Cell system: HCT116 human colon cancer cells. Knock-down reagent: siRNA pool against human genes, 50 nM siRNA. Measurement: 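mRNA of six signature genes measured together by branched-DNA assay after 50 nM siRNA pool, blank removed, divided by geometric mean of two housekeeping genes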. Scale: BNIP3L mRNA: higher = more BNIP3L transcript after knockdown.
Shown is an unselected part of about 14,000 reagents tested. Further read-outs or replicates are left out here. The record does not give: the time to read-out.

no.	target	BNIP3L mRNA, set 1
1	PPFIBP2	0.24
2	SPPL2A	0.148
3	ADO	0.129
4	ABCA2	0.12
5	RBKS	0.133
6	C2orf42	0.136
7	WNT9A	0.0621
8	TAS2R13	0.172
9	PXN	0.0773
10	VOPP1	0.0669
11	TBL1X	0.175
12	SLC33A1	0.0571
13	SNX12	0.114
14	NSMCE3	0.183
15	MAGEF1	0.124
16	GDF11	0.1
17	GIPR	0.174
18	TRIM68	0.115
19	TPM4	0.0715
20	THSD1	0.177
21	ATG2B	0.118
22	WIPI2	0.105
23	CTSZ	0.111
24	LAMC1	0.0941
25	TMEM60	0.148
26	LYZ	0.125
27	CDKN2AIP	0.0826
28	C8orf76	0.0593
29	HPDL	0.165
30	SH3GL2	0.0904

Targets listed so far whose target name starts with C or c (4):
target	BNIP3L mRNA, set 1
C2orf42	0.136
CTSZ	0.111
CDKN2AIP	0.0826
C8orf76	0.0593

Next reagents:
no.	target	BNIP3L mRNA, set 1
31	EBI3	0.0654
32	TAFAZZIN	0.137
33	ZBTB6	0.207
34	KLRC2	0.0644
35	PORCN	0.0581
36	HMBOX1	0.125
37	GLO1	0.124
38	FOLR2	0.115
39	EIF6	0.158
40	RAPGEF5	0.0941
41	PCDH19	0.156
42	TOR1B	0.15
43	ADH1C	0.102
44	AGBL4	0.118
45	PRKAG1	0.16
46	PPWD1	0.16
47	PCDHB14	0.0872
48	CCNY	0.0806
49	MARS1	0.0598
50	RAB30	0.0998
